Values quoted from earlier work in patent publication US20220362213A1, “METHODS FOR TREATING POST ENDOSCOPIC RETROGRADE CHOLANGIOPANCREATOGRAPHY PANCREATITIS” (priority 2021, published 2022).
At least one structure is not confirmed: it was looked up by name or label, or the drawing left a doubt.

System: post-ERCP pancreatitis

SMILES: C[C@H](N)C(=O)NCC(=O)N[C@H]1CSSC[C@@H](C(=O)O)NC(=O)[C@H](CO)NC(=O)[C@H]([C@@H](C)O)NC(=O)[C@H](Cc2ccccc2)NC(=O)[C@H]([C@@H](C)O)NC(=O)[C@H](CCCCN)NC(=O)[C@H](Cc2c[nH]c3ccccc23)NC(=O)[C@H](Cc2ccccc2)NC(=O)[C@H](Cc2ccccc2)NC(=O)[C@H](CC(N)=O)NC(=O)[C@H](CCCCN)NC1=O [somatostatin]
- reducing the frequency of post-ERCP pancreatitis (prophylaxis, meta-analysis of 28 clinical trials): effective
- preventing post-ERCP pancreatitis (two large controlled trials, pharmacologic prevention in high-risk patients): ineffective
